Measured values from patent US20220315968A1, “PEPTIDES AND METHODS FOR THE CARBON-CARBON BOND FORMATION” (Max-Planck-Gesellschaft zur Förderung der Wissenschaften …, priority 2019, published 2022).

Test system: OXS-OXCMe-Y497A-YciA cascade
Assay type: biochemical
Conditions: enantiomeric excess of the α-hydroxy acid product; 25 mM aldehyde, 10 mM disodium oxalate; chiral HPLC
Procedure: Samples were diluted 1:10 in H2O. UPLC-high resolution MS analyses were performed on an Agilent 6550 iFunnel QTOF LC/MS system equipped with an electrospray ionization source to negative ionization mode. The analytes were isocratically chromatographed on a chiral column (100 mm×2.1 mm, particle size 2.7 μm, Poroshell 120 Chiral-T, Agilent) kept at ambient temperature using a mobile phase system comprised of 30:70 20 mM ammonium formate pH 4/methanol at a flow rate of 250 μl/min for 10 min. Samples were held at 10° C. and injection volume was 1 μl. […] MS data were acquired with a scan range of 100-1100 m/z. For quantification the calculated m/z value of [M-H]^− was used to obtain the extracted ion count from the total ion count.
0.5 mM ADP, 0.15 mM ThDP, 0.5 mM CoA, 10 mM ATP, 25 mM benzaldehyde, 5 μM OXS, 5 μM OXC and 2 μM YciA. The reaction was started by adding 10 mM oxalate. As negative controls, YciA, OXS or OXC were omitted in separate reactions. Samples were taken after 0, 0.05, 0.25, 0.66, 1, 2, 3, 22 hours and analyzed with the LC-MS detection of mandelic acid derivatives.
The aldehyde substrate screen of the OXS-OXCMe-Y497A-YciA cascade was carried out as described above (example 13), except that the aromatic aldehydes were prepared as 33 mM stocks in 20 vol % DMSO and diluted to final concentration of 25 mM into the assay. Samples were analyzed with the mandelic acid derivatives method described above. Mandelic acid (3a), 4-chloromandelic acid (3c), 2-chloromandelic acid (3d) and 3-phenyllactic acid (3b) were quantified by comparison to commercial standards.

Row | SMILES | ee [%]
1 | O=C(O)C(O)c1ccc(Cl)cc1 (racemic) [4-chloromandelic acid] | 95
2 | O=C(O)[C@@H](O)c1ccccc1Cl [2-chloromandelic acid, (S)-2-chloromandelic acid] | 44
3 | O=C(O)C(O)c1cccc(Cl)c1 (stereo not drawn) [3-chloromandelic acid] | 98
4 | CC(=O)c1ccc(C(O)C(=O)O)cc1 (stereo not drawn) [4-acetylmandelic acid] | 51
5 | O=Cc1ccc(C(O)C(=O)O)cc1 (stereo not drawn) [4-aldehydemandelic acid] | 46
6 | C#Cc1ccc(C(O)C(=O)O)cc1 (stereo not drawn) [4-ethynylmandelic acid] | 75
7 | O=C(O)C(O)c1ccc(O)cc1 (stereo not drawn) [4-hydroxymandelic acid] | 95
8 | O=C(O)C(O)c1ccc([N+](=O)[O-])cc1 (stereo not drawn) [4-nitromandelic acid] | 80
9 | O=C(O)C(O)c1ccco1 (stereo not drawn) [Hydroxy(2-furyl)acetic acid] | 75
10 | O=C(O)C(O)c1ccc2ccccc2c1 (stereo not drawn) [Hydroxy(2-naphthyl)acetic acid] | 80
11 | O=C(O)C(O)c1cccs1 (stereo not drawn) [Hydroxy(2-thiopheneyl)acetic acid] | 65
12 | O=C(O)C(O)c1ccccc1 (stereo not drawn) [mandelic acid] | 99
